Values joined by “and” are separate entries in the source; they are usually repeats but may differ in a detail not shown here. Equal entries are not always repeated. The list shows a part of the results. These are further read-outs of the screen, such as a control signal, another cell line or another target. No call is given for them. Most of these compounds were active or inconclusive in the main read-out, so they are no random draw. The note in brackets gives the kind of curve behind each potency; many fits are weak.
Test: qHTS Assay for Modulators of Lamin A Splicing
Details: HeLa LMNA splicing GFP/RFP minigene ratio, 48 h
Summary of the method: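 S3 HeLa cells stably expressing lamin A-EGFP splicing minigene plus DsRed2, 600 cells/well, 48 h compound exposure at 37C. Laser-scanning cytometry; analysed as GFP (500-530 nm)/RFP (575-640 nm) total intensity ratio; 0.5% DMSO vehicle.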

[1] = measured here: GFP splicing reporter channel
[2] = measured here: RFP viability control channel

Structure (SMILES) | AC50 [1] | AC50 [2]
CC(=O)c1ccc(NS(=O)(=O)c2ccc3ccccc3c2)cc1 | 1.78 µM [rising, full curve, poor fit] | 14.1 µM [rising, partial curve]
Cn1cnnc1SCc1ccc(C(=O)N=Nc2c(O)n(Cc3ccc(Cl)cc3)c3ccccc23)cc1 | 17.8 µM [rising, partial curve] | 35.5 µM [rising, single point]
O=C(c1cnccn1)N1CCN(S(=O)(=O)c2ccc3ccccc3c2)CC1 | – | 15.8 µM [rising, single point]
CCOC(=O)N/N=C/c1ccc(N(CC)CC)cc1O | 7.94 µM [rising, partial curve] | 14.1 µM [rising, partial curve]
NC(=O)CSc1nc2c(c(=O)n1-c1ccccc1)C1(CCCCC1)Cc1ccccc1-2 | – | 8.91 µM [rising, partial curve]
O=C(O)CCCCCn1c(SCC(=O)c2ccc(O)c(O)c2)nc2ccsc2c1=O | 31.6 µM [rising, single point] | –
CCOc1ccc(S(=O)(=O)N2CCC(C(N)=O)CC2)c2ccccc12 | – | 10 µM [rising, partial curve]
O=C(CSc1nnc(-c2c[nH]c3ccccc23)o1)N1CCCCC1 | – | 31.6 µM [rising, single point]
CC(OC(=O)c1ccccc1O)C(=O)Nc1ccc(Cl)cn1 (stereo unspecified) | – | 2.51 µM [falling, partial curve]
CC(C)c1ccc(NC(=O)c2ccc(NS(C)(=O)=O)cc2)cc1 | 0.398 µM [rising, partial curve, poor fit] | 8.91 µM [rising, partial curve]
CN(C)CCCCSC(=N)N | 2.82 µM [rising, partial curve, poor fit] | –
CC(CCN(C)C)OC(=O)c1ccc(C(C)c2ccccc2)o1 (stereo unspecified) | – | 35.5 µM [rising, single point]
CC(C)CCNC(=O)C1CCN(c2nc3ccccc3o2)CC1 | – | 22.4 µM [rising, single point]
CCN(CC)CCn1c(SCC(=O)NCc2ccccc2)nc2c(sc3ccccc32)c1=O | 0.0282 µM [rising, full curve, poor fit] | –
O=C(c1ccc(F)cc1)[C@@H]1[C@@H](C(=O)c2ccccc2)[C@@]2(C(=O)Nc3ccccc32)[C@H]2c3ccccc3C=CN12 | 0.891 µM [rising, partial curve, poor fit] | 0.00355 µM [rising, full curve, poor fit]
O=C(Nc1cccc(F)c1)c1cccnc1N1CCOCC1 | 11.2 µM [rising, partial curve] | –
CN(C)CCCN(C(=O)/C=C/c1cccs1)c1nc2c(F)cccc2s1 | 2.24 µM [falling, partial curve] | –
CC(C)C(OC(=O)c1cc2c(s1)CCCCC2)C(=O)NC(N)=O (stereo unspecified) | – | 35.5 µM [rising, single point]
c1ccc(Cn2c(CNc3nc4ccccc4n3CCN3CCCCC3)nc3ccccc32)cc1 | 12.6 µM [rising, partial curve] | 14.1 µM [rising, partial curve]
CCOC(=O)c1cnn(-c2ccccc2)c1-n1cccc1C(=O)C(=O)Nc1ccccc1C(F)(F)F | 35.5 µM [falling, single point] | –
CS(=O)(=O)c1ccc(Cl)c(NC(=O)COC(=O)c2ccc(F)cc2Cl)c1 | 0.0355 µM [falling, full curve, poor fit] | –
CC(C)NCC(O)c1ccc(NS(C)(=O)=O)cc1 (stereo unspecified) | 0.891 nM [falling, full curve, poor fit] and 6.31 µM [falling, partial curve, poor fit] | 11.2 µM [rising, single point] and 3.55 nM [falling, full curve, poor fit] and 5.62 µM [falling, single point]
Cc1ccc2[nH]cc(C(=O)NCc3cccs3)c(=O)c2c1 | – | 20 µM [rising, single point]
c1ccc(-n2cnc3cc(NCc4ccco4)ccc32)cc1 | 0.0355 µM [rising, full curve, poor fit] | 0.0224 µM [rising, full curve, poor fit]
CCn1c(SCc2ccc(C(=O)Nc3cc(C)cc(C)c3)cc2)nnc1-c1ccncc1 | – | 15.8 µM [rising, single point]

Two compounds picked at random from those above:
Structure (SMILES) | AC50 [1] | AC50 [2]
O=C(Nc1cccc(F)c1)c1cccnc1N1CCOCC1 | 11.2 µM [rising, partial curve] | –
c1ccc(-n2cnc3cc(NCc4ccco4)ccc32)cc1 | 0.0355 µM [rising, full curve, poor fit] | 0.0224 µM [rising, full curve, poor fit]

(more compounds)

Structure (SMILES) | AC50 [1] | AC50 [2]
O=C(Nc1nc2ccc(F)cc2s1)C1CCN(S(=O)(=O)c2cc([N+](=O)[O-])ccc2Cl)CC1 | – | 1.58 µM [rising, partial curve, poor fit]
COc1cc(C(=O)NCC(c2cccnc2)N2CCN(c3ccc(F)cc3)CC2)cc(OC)c1OC (stereo unspecified) | 35.5 µM [falling, single point] and 89.1 nM [rising, full curve, poor fit] | 35.5 µM [falling, single point]
Cc1ccccc1CNC(=O)c1ccc(-n2c(C)cc3c2CCCC3)cc1 | 20 µM [falling, single point] | 35.5 µM [falling, single point]
C#C[C@]1(O)CC[C@H]2[C@@H]3CCc4cc(OC)ccc4[C@H]3CC[C@@]21C | 0.00355 µM [falling, full curve, poor fit] | 12.6 µM [rising, single point] and 1.26 µM [falling, full curve, poor fit]
COc1ccc(CNc2nc3c(c(=O)n(Cc4ccc(Cl)cc4)c(=O)n3C)n2C)cc1 | – | 6.31 µM [rising, partial curve]
O=C(CC1S/C(=N/N=C/c2c[nH]c3ccc(OCc4ccccc4)cc23)NC1=O)Nc1ccccc1 (stereo unspecified) | – | 17.8 µM [falling, partial curve, poor fit]
Nc1ccccc1Nc1cc(-c2cccc(Cl)c2)nn1-c1ccccc1 | 12.6 µM [rising, single point] | 28.2 µM [rising, partial curve]
Cn1c(N)c(C(=O)COC(=O)c2ccc([N+](=O)[O-])o2)c(=O)n(C)c1=O | – | 0.112 µM [falling, full curve]
O=C(Nc1ccc(Cl)cc1Cl)c1cc(S(=O)(=O)N2CCN(c3ccccc3F)CC2)ccc1F | 0.501 µM [rising, full curve, poor fit] | 6.31 µM [rising, partial curve, poor fit]
Cc1ccc(O)c(-c2cc(C(=O)Nc3ccc(S(=O)(=O)Nc4nc(C)cc(C)n4)cc3)[nH]n2)c1 | – | 11.2 µM [rising, partial curve]
Cc1ccc(NC(=O)Nc2cccnc2)cc1NC(=O)Nc1cccnc1 | – | 2.82 µM [falling, partial curve]
CC(C)c1ccc(NC(=O)N2CCCC2C(=O)Nc2ccc(-n3cnnn3)cc2)cc1 (stereo unspecified) | 0.562 µM [falling, full curve, poor fit] | 0.0631 µM [falling, full curve, poor fit]
COc1cccc(N2CCN(C(=O)c3ccc(CSc4nc5ccncc5[nH]4)cc3)CC2)c1 | – | 12.6 µM [rising, partial curve]
CCC(C(=O)Nc1cccc(-c2cn3cccnc3n2)c1)c1ccccc1 (stereo unspecified) | 5.01 µM [rising, single point] | –
CC1=C(C)C(=O)C(CCCCC#CCCCC#CCO)=C(C)C1=O | 3.98 µM [falling, full curve, poor fit] and 15.8 µM [rising, single point] | 6.31 µM [falling, single point] and 25.1 µM [rising, single point]
COc1ccc(Br)cc1CNC(=O)CCCn1c(=O)c2cccn2c2ccccc21 | 25.1 µM [falling, partial curve] | 12.6 µM [falling, partial curve, poor fit]
Cc1cc(C)c(/C=C(\C#N)C(N)=S)c(C)c1 | 0.316 µM [falling, full curve, poor fit] | –
O=C(Nc1ccc(Cl)cc1)C1CCN(c2nc3ccccc3n3cccc23)CC1 | 35.5 µM [falling, single point] | 35.5 µM [falling, single point]
N=c1n(Cc2ccccc2Cl)c2ccccc2n1CC(O)c1ccco1 (stereo unspecified) | 31.6 µM [falling, partial curve, poor fit] | –
NC(=S)n1[nH]c(-c2ccc([N+](=O)[O-])cc2)c(N=Nc2cccc(Cl)c2)c1=O | – | 35.5 µM [rising, single point]
CCCc1cc(=O)[nH]c(NCc2ccc(Cl)cc2)n1 | 10 µM [rising, single point] | 25.1 µM [rising, single point]
COC(=O)c1cc(C)sc1NC(=O)c1cccnc1 | 14.1 µM [rising, single point] | 0.0178 µM [rising, full curve, poor fit]
CCOc1ccc(NC(=O)N2CCOc3ccccc32)cc1 | 7.94 µM [falling, partial curve, poor fit] | 2.51 µM [falling, full curve]
CSc1ccc(S(=O)(=O)NC2CCCCCC2)cc1 | 4.47 µM [rising, single point] | 7.08 µM [rising, single point]
Cc1ccc(Cl)cc1Nc1nc2ccccc2n2c(C)nnc12 | 0.158 µM [rising, full curve, poor fit] | –
